No constants are given. Whether binding was seen depends on the method and setting. Binding seen in cells or lysates may run through a third protein. Some binding calls cover weakened binding; strength is not graded here.
Experiments:
[1] = target: STAT3 (signal transducer and activator of transcription 3) (human (endogenous in LN229)) (UniProt P40763); test: proximity ligation; fixed and permeabilised LN229 cells, primary antibodies against the two endogenous proteins, MINUS and PLUS PLA probes, confocal microscopy; siRNA-depleted cells as controls
[2] = target: PDIA3 expressed from a plasmid in 293T cells (UniProt P30101); test: co-IP; 293T cells transfected with the indicated plasmids, lysed in RIPA buffer with benzonase nuclease; immunoprecipitation of Flag-tagged proteins, washed with IP2 buffer, eluted with 3x Flag peptide, immunoblot

Amino acid sequences for entries named in this document (tags omitted). Residues count along the entry.
UniProt P40763: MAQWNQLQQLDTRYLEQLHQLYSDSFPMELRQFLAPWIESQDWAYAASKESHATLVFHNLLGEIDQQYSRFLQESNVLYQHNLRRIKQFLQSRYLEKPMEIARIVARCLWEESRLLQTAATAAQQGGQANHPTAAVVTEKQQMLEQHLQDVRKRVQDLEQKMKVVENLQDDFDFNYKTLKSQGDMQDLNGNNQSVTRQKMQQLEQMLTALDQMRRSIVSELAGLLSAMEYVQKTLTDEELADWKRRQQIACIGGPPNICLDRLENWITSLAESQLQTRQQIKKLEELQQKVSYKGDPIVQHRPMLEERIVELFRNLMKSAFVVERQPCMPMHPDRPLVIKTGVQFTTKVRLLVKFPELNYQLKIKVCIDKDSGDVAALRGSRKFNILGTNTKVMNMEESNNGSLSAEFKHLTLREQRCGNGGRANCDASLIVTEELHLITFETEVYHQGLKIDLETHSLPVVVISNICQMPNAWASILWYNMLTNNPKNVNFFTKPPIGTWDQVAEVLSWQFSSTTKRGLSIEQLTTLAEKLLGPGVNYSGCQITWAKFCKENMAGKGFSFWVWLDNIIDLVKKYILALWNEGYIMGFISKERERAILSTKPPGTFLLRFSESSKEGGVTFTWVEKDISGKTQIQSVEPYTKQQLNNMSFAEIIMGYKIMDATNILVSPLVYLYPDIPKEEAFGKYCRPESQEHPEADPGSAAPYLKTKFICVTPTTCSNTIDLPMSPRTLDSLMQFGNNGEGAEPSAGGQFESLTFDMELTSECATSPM
UniProt P30101, residues 25-505: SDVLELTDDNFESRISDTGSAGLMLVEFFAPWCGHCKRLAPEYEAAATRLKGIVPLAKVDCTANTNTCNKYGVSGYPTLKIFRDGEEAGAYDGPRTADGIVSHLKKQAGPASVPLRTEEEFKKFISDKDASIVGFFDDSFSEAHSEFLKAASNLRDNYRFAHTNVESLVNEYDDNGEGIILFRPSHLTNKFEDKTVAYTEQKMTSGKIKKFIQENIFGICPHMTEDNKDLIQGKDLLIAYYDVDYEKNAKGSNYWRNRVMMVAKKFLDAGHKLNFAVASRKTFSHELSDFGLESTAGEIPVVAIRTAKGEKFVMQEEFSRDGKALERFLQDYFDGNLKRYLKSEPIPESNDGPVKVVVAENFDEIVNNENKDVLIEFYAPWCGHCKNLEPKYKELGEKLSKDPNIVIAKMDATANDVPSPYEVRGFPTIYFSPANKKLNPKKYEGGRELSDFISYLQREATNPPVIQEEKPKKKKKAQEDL
UniProt Q96PU5, residues 640-974: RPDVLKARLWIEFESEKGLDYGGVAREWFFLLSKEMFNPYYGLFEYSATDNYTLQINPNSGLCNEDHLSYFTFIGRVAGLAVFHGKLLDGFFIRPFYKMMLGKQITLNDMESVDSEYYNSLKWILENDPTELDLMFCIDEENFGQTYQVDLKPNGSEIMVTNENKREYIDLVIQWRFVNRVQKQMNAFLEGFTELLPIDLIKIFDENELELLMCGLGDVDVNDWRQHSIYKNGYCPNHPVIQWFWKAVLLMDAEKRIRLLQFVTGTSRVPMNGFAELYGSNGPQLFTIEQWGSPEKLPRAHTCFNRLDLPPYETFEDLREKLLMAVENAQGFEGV

binding [1]	binding [2]	Substance
binds		protein disulfide isomerase A3 (PDIA3) (from UniProt P30101 25-505)
	binds	HECT domain of NEDD4L (truncated NEDD4L) (from UniProt Q96PU5 640-974) (domain or fragment)

— paper PMC12948197
